Laboratory results: PubChem BioAssay AID1259308 (NCATS, 2017)
The whole screen tested about 59,000 reagents; below is a part drawn at random. In the full data, about 1,510 (2.6%) got an active call. 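Calls use total luciferase alone and ignore viability, so some active siRNAs may act by altering cell number.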 Not all columns of the deposit are shown. No sequences are given here.

Assay: 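Genes whose loss raises luciferase production in HEK293 cells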 (primary screen)
Cells: human HEK293 embryonic kidney cells stably expressing firefly luciferase (HEK-CMV-Luc2-Hygro)
Reagents: single siRNA against human genes, 0.8 pmol siRNA per well
Time to read-out: 72 h
Measured: 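Reporter luminescence and viable-cell signal on separate replicate plates, given as percent of non-targeting control and median/MAD z-scores, plus per-cell luciferase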
Direction: total luciferase, z-score: higher = more reporter protein produced
Active means: 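An siRNA counts as active if its total luciferase robust z-score exceeds 3; genes with two or more such siRNAs out of three were retested with fresh siRNAs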
Calls: active = raised luciferase; inactive = no rise

LILRB5 [SID160729689]
- total luciferase, z-score: -0.0387
- Call: inactive

LILRB5 [SID160729690]
- total luciferase, z-score: 0.846
- Call: inactive

LILRB5 [SID160730490]
- total luciferase, z-score: -0.685
- Call: inactive

HNRNPA1P60 [SID160755796]
- total luciferase, z-score: -1.64
- Call: inactive

HNRNPA1P60 [SID160755797]
- total luciferase, z-score: -2.04
- Call: inactive

HNRNPA1P60 [SID160755798]
- total luciferase, z-score: 2.66
- Call: inactive

CRYGD [SID160723717]
- total luciferase, z-score: 0.0609
- Call: inactive

CRYGD [SID160723718]
- total luciferase, z-score: 0.413
- Call: inactive

CRYGD [SID160748794]
- total luciferase, z-score: -2.24
- Call: inactive

CASZ1 [SID160742441]
- total luciferase, z-score: 0.884
- Call: inactive

CASZ1 [SID160742442]
- total luciferase, z-score: -0.65
- Call: inactive

CASZ1 [SID160742443]
- total luciferase, z-score: 1.44
- Call: inactive

LGALS7B [SID160726402]
- total luciferase, z-score: 1.37
- Call: inactive

LGALS7B [SID160726403]
- total luciferase, z-score: -1.39
- Call: inactive

LGALS7B [SID160726404]
- total luciferase, z-score: -0.124
- Call: inactive

BTF3 [SID160729209]
- total luciferase, z-score: 0.363
- Call: inactive

BTF3 [SID160729219]
- total luciferase, z-score: 1.51
- Call: inactive

BTF3 [SID160729230]
- total luciferase, z-score: -1.96
- Call: inactive

DUOXA1 [SID160753731]
- total luciferase, z-score: 2.3
- Call: inactive

DUOXA1 [SID160753732]
- total luciferase, z-score: 0.321
- Call: inactive

DUOXA1 [SID160753733]
- total luciferase, z-score: 1.57
- Call: inactive

CAVIN4 [SID160764945]
- total luciferase, z-score: 2.88
- Call: inactive

CAVIN4 [SID160764946]
- total luciferase, z-score: 0.997
- Call: inactive

CAVIN4 [SID160764947]
- total luciferase, z-score: 1.38
- Call: inactive

FAM219B [SID160745778]
- total luciferase, z-score: 1.27
- Call: inactive

FAM219B [SID160745779]
- total luciferase, z-score: -0.198
- Call: inactive

FAM219B [SID160745780]
- total luciferase, z-score: -0.99
- Call: inactive

MC4R [SID160777025]
- total luciferase, z-score: 0.264
- Call: inactive

MC4R [SID160777026]
- total luciferase, z-score: 2.39
- Call: inactive

MC4R [SID160777027]
- total luciferase, z-score: -0.721
- Call: inactive

USP5 [SID160719606]
- total luciferase, z-score: 2.02
- Call: inactive

USP5 [SID160719607]
- total luciferase, z-score: 0.491
- Call: inactive

USP5 [SID160719608]
- total luciferase, z-score: 4.34
- Call: active
